Data reported in PMC11773556, “Neuromodulating Alkaloids from Millipede Defensive Secretions” (Journal of Natural Products, 2024).

By UniProt entry, the sequences of proteins in these tests, tags left out. Where a name states a change or a piece, a line headed by the entry shows the natural chain unless it says otherwise. Residues count along the entry.
UniProt P09483, 31-630: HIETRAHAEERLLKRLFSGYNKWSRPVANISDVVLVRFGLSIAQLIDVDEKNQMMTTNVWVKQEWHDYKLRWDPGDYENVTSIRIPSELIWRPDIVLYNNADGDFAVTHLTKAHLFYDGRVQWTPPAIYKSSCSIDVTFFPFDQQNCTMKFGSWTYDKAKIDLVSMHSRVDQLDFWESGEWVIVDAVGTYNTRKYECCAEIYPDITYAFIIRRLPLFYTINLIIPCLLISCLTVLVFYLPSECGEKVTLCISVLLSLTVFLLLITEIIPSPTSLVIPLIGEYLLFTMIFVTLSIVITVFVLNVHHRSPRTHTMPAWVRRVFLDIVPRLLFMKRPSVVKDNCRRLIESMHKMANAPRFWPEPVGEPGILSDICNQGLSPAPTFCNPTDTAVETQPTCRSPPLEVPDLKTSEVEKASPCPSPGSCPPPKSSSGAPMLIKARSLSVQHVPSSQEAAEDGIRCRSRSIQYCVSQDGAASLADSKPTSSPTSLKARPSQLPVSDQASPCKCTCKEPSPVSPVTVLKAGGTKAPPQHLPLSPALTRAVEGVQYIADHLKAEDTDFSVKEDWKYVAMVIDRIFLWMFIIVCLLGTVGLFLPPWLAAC
UniProt P12392, 21-495: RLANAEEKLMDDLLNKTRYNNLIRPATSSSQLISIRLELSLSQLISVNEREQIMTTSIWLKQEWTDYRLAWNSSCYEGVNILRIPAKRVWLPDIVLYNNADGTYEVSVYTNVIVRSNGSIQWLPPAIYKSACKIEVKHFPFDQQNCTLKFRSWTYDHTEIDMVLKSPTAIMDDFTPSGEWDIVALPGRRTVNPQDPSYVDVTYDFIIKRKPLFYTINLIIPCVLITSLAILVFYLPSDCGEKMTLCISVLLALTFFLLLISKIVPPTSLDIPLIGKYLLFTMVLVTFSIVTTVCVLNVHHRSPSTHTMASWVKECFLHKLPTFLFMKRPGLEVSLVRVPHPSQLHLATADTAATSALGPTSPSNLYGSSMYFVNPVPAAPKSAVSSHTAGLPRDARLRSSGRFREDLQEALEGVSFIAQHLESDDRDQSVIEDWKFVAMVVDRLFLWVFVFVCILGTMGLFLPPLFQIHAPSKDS
UniProt P04757, 26-499: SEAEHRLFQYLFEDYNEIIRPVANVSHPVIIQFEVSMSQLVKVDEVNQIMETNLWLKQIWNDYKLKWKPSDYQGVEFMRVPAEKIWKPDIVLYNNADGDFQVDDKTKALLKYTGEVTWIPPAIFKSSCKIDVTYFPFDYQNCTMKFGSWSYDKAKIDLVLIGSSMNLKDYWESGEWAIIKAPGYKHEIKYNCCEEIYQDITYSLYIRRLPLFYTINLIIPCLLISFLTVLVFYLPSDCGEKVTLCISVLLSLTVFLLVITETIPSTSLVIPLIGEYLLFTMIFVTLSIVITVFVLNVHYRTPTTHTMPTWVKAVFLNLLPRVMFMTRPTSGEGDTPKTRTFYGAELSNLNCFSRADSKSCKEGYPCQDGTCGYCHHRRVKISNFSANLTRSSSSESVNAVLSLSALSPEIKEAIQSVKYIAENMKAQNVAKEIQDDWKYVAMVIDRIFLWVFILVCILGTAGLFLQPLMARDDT
UniProt P41145: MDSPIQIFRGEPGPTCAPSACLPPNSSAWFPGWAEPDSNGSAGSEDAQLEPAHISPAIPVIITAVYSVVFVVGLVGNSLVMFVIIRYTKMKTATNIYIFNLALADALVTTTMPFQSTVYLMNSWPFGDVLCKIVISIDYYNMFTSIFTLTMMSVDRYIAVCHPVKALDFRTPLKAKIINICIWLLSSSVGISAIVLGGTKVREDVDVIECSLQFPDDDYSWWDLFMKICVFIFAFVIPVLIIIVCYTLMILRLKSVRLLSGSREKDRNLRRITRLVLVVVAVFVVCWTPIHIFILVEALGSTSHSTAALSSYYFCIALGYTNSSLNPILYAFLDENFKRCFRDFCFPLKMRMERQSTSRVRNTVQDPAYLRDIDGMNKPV
UniProt P12390, 25-500: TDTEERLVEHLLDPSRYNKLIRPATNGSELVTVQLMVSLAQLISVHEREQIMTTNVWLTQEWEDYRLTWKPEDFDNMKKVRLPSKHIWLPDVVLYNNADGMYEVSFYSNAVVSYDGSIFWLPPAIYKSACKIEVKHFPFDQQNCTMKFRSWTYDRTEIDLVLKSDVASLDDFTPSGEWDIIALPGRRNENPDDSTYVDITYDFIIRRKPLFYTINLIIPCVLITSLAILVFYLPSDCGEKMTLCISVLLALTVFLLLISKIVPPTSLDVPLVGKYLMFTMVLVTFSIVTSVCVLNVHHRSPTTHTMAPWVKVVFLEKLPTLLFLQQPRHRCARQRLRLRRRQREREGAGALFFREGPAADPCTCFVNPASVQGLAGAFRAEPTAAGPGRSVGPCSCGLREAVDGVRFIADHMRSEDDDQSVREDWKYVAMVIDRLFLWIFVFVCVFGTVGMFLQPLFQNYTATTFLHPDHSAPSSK
UniProt P41595, whole entry, species assumed: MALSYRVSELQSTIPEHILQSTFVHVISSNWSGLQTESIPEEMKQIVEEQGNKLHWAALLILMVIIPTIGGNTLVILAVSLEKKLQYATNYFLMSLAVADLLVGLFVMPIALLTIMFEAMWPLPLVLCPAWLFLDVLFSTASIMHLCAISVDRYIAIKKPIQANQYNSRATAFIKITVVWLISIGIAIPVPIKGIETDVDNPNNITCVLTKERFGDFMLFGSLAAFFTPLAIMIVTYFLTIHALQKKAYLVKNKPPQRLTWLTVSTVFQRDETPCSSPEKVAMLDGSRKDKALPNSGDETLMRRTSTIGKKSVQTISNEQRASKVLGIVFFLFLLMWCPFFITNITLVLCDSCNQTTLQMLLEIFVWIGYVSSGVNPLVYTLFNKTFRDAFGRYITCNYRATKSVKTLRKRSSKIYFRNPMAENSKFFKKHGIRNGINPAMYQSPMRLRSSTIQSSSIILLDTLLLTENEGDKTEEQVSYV
UniProt P08908, whole entry: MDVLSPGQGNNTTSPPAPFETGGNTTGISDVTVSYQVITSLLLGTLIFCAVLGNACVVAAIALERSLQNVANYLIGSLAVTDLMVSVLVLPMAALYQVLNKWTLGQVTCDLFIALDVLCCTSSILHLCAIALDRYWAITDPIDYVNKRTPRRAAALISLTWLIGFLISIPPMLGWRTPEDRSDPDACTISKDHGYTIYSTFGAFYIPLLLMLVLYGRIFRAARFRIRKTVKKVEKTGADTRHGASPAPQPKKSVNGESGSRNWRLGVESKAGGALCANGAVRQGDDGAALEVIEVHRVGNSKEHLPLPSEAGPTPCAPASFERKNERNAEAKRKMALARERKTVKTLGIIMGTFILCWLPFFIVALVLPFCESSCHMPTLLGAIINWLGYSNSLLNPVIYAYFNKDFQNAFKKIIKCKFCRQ
UniProt P21917, whole entry: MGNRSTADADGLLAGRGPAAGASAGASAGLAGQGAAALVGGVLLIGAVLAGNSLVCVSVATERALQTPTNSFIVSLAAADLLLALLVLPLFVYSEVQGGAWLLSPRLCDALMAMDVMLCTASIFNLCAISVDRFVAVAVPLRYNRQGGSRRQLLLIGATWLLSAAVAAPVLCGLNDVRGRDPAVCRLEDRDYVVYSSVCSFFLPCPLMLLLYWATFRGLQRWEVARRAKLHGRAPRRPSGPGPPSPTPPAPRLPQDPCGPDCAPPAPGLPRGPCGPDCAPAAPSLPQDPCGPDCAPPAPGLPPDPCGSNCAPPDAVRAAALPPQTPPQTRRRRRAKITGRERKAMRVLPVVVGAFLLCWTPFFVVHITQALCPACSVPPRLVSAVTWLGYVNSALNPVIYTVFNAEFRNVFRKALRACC
UniProt P25100, whole entry: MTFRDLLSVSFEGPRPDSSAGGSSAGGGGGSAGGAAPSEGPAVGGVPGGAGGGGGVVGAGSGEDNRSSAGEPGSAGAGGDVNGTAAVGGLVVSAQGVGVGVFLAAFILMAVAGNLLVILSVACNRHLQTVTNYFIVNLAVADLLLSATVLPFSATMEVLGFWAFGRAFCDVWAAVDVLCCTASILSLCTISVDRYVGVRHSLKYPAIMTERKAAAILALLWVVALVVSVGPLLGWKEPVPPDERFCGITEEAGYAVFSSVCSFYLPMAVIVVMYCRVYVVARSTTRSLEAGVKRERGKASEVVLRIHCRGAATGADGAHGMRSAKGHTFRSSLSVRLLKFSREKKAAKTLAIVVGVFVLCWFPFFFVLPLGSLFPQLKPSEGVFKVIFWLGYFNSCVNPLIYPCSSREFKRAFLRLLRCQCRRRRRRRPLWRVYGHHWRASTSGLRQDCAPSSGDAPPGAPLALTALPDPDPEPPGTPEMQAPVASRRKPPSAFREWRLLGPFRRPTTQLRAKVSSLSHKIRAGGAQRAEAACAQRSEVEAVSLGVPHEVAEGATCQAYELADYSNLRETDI
UniProt P28222, whole entry: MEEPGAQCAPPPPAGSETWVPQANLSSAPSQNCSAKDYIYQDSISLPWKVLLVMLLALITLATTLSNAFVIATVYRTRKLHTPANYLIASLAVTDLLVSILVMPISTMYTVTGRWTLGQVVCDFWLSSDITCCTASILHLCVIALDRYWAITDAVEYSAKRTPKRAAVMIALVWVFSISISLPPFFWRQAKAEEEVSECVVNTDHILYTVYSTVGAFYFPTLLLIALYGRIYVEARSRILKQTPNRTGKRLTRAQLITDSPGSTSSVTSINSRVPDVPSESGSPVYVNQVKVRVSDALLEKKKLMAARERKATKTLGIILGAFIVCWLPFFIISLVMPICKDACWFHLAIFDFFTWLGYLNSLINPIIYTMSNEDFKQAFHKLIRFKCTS
UniProt Q9Y5N1: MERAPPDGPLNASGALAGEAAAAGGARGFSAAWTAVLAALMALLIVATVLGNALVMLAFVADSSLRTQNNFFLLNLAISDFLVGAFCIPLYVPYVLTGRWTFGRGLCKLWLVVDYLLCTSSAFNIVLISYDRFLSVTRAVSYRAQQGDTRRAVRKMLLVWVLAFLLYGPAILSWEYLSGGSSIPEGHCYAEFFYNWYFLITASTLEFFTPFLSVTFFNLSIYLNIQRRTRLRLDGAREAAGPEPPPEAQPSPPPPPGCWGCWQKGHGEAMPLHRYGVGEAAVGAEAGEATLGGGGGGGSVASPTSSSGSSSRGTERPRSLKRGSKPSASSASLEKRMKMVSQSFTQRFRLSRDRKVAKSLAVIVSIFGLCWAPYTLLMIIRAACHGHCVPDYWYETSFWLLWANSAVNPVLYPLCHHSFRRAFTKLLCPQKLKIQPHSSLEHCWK
UniProt P35348: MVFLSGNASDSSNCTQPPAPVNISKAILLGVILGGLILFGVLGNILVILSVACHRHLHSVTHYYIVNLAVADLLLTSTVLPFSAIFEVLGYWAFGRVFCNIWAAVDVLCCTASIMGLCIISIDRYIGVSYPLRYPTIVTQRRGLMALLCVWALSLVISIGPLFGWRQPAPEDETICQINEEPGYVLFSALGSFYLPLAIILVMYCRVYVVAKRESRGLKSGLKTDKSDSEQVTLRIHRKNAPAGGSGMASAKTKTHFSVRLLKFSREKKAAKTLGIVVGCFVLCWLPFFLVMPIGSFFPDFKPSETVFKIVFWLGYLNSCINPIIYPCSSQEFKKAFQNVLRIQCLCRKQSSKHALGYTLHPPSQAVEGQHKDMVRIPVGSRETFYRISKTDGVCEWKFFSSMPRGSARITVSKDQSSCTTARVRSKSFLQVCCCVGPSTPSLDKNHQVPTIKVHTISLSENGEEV
UniProt P12389, 28-511: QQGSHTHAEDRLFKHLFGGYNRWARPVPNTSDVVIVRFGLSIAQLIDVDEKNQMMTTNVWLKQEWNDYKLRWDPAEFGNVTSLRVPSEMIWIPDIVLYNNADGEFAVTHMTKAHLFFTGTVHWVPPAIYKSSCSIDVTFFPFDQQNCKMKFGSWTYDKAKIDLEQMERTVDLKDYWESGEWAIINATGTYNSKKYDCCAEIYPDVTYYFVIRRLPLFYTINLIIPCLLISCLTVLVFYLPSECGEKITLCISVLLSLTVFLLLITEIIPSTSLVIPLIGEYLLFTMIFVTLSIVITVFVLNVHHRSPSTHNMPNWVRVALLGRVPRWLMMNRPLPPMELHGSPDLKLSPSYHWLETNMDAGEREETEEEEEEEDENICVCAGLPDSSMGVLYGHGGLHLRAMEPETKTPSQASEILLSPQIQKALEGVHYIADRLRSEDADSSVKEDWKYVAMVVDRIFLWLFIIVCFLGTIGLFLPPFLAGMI
UniProt P08913, whole entry: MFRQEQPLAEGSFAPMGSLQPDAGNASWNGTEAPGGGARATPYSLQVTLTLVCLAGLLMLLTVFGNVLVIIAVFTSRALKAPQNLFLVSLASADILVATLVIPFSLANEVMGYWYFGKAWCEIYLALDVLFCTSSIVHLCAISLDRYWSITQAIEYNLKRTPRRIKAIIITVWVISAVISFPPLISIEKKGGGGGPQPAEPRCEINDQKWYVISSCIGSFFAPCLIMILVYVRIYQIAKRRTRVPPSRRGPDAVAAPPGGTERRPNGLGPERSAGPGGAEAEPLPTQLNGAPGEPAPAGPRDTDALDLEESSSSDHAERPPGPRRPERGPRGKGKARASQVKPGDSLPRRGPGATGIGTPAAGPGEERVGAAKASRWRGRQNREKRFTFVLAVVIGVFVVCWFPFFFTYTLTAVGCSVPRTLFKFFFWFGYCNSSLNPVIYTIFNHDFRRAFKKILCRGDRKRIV

What was measured:
α4β4 = α4β4 (Rattus norvegicus, UniProt P09483+P12392); experiment: biochemical; conditions: read-out: Primary binding assay Inhibition, Mean %
SERT = SERT (Homo sapiens, UniProt P31645); experiment: biochemical; conditions: read-out: Primary binding assay Inhibition, Mean %
D3 = D3 (Homo sapiens, UniProt P35462); experiment: biochemical; conditions: for inhibition at 10 µM: read-out: Primary binding assay Inhibition, Mean %
α3β4 = α3β4 (Rattus norvegicus, UniProt P04757+P12392); experiment: biochemical; conditions: read-out: Primary binding assay Inhibition, Mean %
α1B = α1B (Homo sapiens, UniProt P35368); experiment: biochemical; conditions: read-out: Primary binding assay Inhibition, Mean %
β2 = β2 (Homo sapiens, UniProt P07550); experiment: biochemical; conditions: read-out: Primary binding assay Inhibition, Mean %
5-HT1E = 5-HT1E (Homo sapiens, UniProt P28566); experiment: biochemical; conditions: for inhibition at 10 µM: read-out: Primary binding assay Inhibition, Mean %
NET = NET (Homo sapiens, UniProt P23975); experiment: biochemical; conditions: read-out: Primary binding assay Inhibition, Mean %
KOR = KOR (Homo sapiens, UniProt P41145); experiment: biochemical; conditions: read-out: Primary binding assay Inhibition, Mean %
5-HT7A = 5-HT7A (Homo sapiens, UniProt P34969); experiment: biochemical; conditions: read-out: Primary binding assay Inhibition, Mean %
MOR = MOR (Homo sapiens, UniProt P35372); experiment: biochemical; conditions: read-out: Primary binding assay Inhibition, Mean %
PBR = PBR (Rattus norvegicus, UniProt P16257); experiment: biochemical; conditions: read-out: Primary binding assay Inhibition, Mean %
H1 = H1 (Homo sapiens, UniProt P35367); experiment: biochemical; conditions: read-out: Primary binding assay Inhibition, Mean %
D1 = D1 (Homo sapiens, UniProt P21728); experiment: biochemical; conditions: for inhibition at 10 µM: read-out: Primary binding assay Inhibition, Mean %
α4β2 (Rat Brain) = α4β2 (Rat Brain) (Rattus norvegicus, UniProt P09483+P12390); experiment: biochemical; conditions: read-out: Primary binding assay Inhibition, Mean %
5-HT2B = 5-HT2B (Homo sapiens, UniProt P41595); experiment: biochemical; conditions: for inhibition at 10 µM: read-out: Primary binding assay Inhibition, Mean %
5-HT1A = 5-HT1A (Homo sapiens, UniProt P08908); experiment: biochemical; conditions: read-out: Primary binding assay Inhibition, Mean %
M5 = M5 (Homo sapiens, UniProt P08912); experiment: biochemical; conditions: read-out: Primary binding assay Inhibition, Mean %
5-HT5A = 5-HT5A (Homo sapiens, UniProt P47898); experiment: biochemical; conditions: read-out: Primary binding assay Inhibition, Mean %
D4 = D4 (Homo sapiens, UniProt P21917); experiment: biochemical; conditions: read-out: Primary binding assay Inhibition, Mean %
M3 = M3 (Homo sapiens, UniProt P20309); experiment: biochemical; conditions: read-out: Primary binding assay Inhibition, Mean %
α3β2 = α3β2 (Rattus norvegicus, UniProt P04757+P12390); experiment: biochemical; conditions: read-out: Primary binding assay Inhibition, Mean %
α1D = α1D (Homo sapiens, UniProt P25100); experiment: biochemical; conditions: read-out: Primary binding assay Inhibition, Mean %
5-HT1B = 5-HT1B (Homo sapiens, UniProt P28222); experiment: biochemical; conditions: read-out: Primary binding assay Inhibition, Mean %
H3 = H3 (Homo sapiens, UniProt Q9Y5N1); experiment: biochemical; conditions: read-out: Primary binding assay Inhibition, Mean %
α1A = α1A (Homo sapiens, UniProt P35348); experiment: biochemical; conditions: read-out: Primary binding assay Inhibition, Mean %
D5 = D5 (Homo sapiens, UniProt P21918); experiment: biochemical; conditions: read-out: Primary binding assay Inhibition, Mean %
M1 = M1 (Homo sapiens, UniProt P11229); experiment: biochemical; conditions: read-out: Primary binding assay Inhibition, Mean %
α2B = α2B (Homo sapiens, UniProt P18089); experiment: biochemical; conditions: read-out: Primary binding assay Inhibition, Mean %
α2β2 = α2β2 (Rattus norvegicus, UniProt P12389+P12390); experiment: biochemical; conditions: read-out: Primary binding assay Inhibition, Mean %
5-HT2C = 5-HT2C (Homo sapiens, UniProt P28335); experiment: biochemical; conditions: read-out: Primary binding assay Inhibition, Mean %
5-HT6 = 5-HT6 (Homo sapiens, UniProt P50406); experiment: biochemical; conditions: read-out: Primary binding assay Inhibition, Mean %
DOR = DOR (Homo sapiens, UniProt P41143); experiment: biochemical; conditions: read-out: Primary binding assay Inhibition, Mean %
α2β4 = α2β4 (Rattus norvegicus, UniProt P12389+P12392); experiment: biochemical; conditions: read-out: Primary binding assay Inhibition, Mean %
M2 = M2 (Homo sapiens, UniProt P08172); experiment: biochemical; conditions: read-out: Primary binding assay Inhibition, Mean %
5-HT3 = 5-HT3 (Homo sapiens, UniProt P46098); experiment: biochemical; conditions: read-out: Primary binding assay Inhibition, Mean %
H4 = H4 (Homo sapiens, UniProt Q9H3N8); experiment: biochemical; conditions: read-out: Primary binding assay Inhibition, Mean %
D2 = D2 (Homo sapiens, UniProt P14416); experiment: biochemical; conditions: read-out: Primary binding assay Inhibition, Mean %
DAT = DAT (Homo sapiens, UniProt Q01959); experiment: biochemical; conditions: read-out: Primary binding assay Inhibition, Mean %
5-HT1D = 5-HT1D (Homo sapiens, UniProt P28221); experiment: biochemical; conditions: read-out: Primary binding assay Inhibition, Mean %
α4β2 = α4β2 (Rattus norvegicus, UniProt P09483+P12390); experiment: biochemical; conditions: read-out: Primary binding assay Inhibition, Mean %
5-HT2A = 5-HT2A (Homo sapiens, UniProt P28223); experiment: biochemical; conditions: read-out: Primary binding assay Inhibition, Mean %
α2A = α2A (Homo sapiens, UniProt P08913); experiment: biochemical; conditions: read-out: Primary binding assay Inhibition, Mean %
β3 = β3 (Homo sapiens, UniProt P13945); experiment: biochemical; conditions: read-out: Primary binding assay Inhibition, Mean %
M4 = M4 (Homo sapiens, UniProt P08173); experiment: biochemical; conditions: read-out: Primary binding assay Inhibition, Mean %
H2 = H2 (Homo sapiens, UniProt P25021); experiment: biochemical; conditions: read-out: Primary binding assay Inhibition, Mean %
α2C = α2C (Homo sapiens, UniProt P18825); experiment: biochemical; conditions: read-out: Primary binding assay Inhibition, Mean %
β1 = β1 (Homo sapiens, UniProt P08588); experiment: biochemical; conditions: read-out: Primary binding assay Inhibition, Mean %
sigma-1 receptor (σ1R) [1] = molecular target: T1, sigma-1 receptor (σ1R) (Homo sapiens, UniProt Q99720); conditions: σ1, 10 μM, quadruplicate
sigma-1 receptor (σ1R) [2] = molecular target: T1, sigma-1 receptor (σ1R); experiment: biochemical; conditions: read-out: Primary binding assay Inhibition % (mean), σ1, 10 μM, quadruplicate

CCCC(=O)O[C@@H]1C2=CCN3CCC[C@@H]3[C@H]2CC(=O)C1(C)C [Compound 2, Ischnocybinone]
inhibition at 10 µM (α4β4): -31.2%
inhibition at 10 µM (SERT): -0.21%
Ki (D3): 5.39 µM
inhibition at 10 µM (D3): 85.5%
inhibition at 10 µM (α3β4): -4.49%
inhibition at 10 µM (α1B): -17%
inhibition at 10 µM (β2): -3.54%
inhibition at 10 µM (5-HT1E): -21.4%
inhibition at 10 µM (NET): 25.5%
inhibition at 10 µM (KOR): 5.58%
inhibition at 10 µM (5-HT7A): 21.5%
inhibition at 10 µM (MOR): -2.53%
inhibition at 10 µM (PBR): -42.5%
inhibition at 10 µM (H1): 8.88%
Ki (D1): > 10 µM
inhibition at 10 µM (D1): 54.9%
inhibition at 10 µM (α4β2 (Rat Brain)): 7%
Ki (5-HT2B): > 10 µM
inhibition at 10 µM (5-HT2B): -51.5%
inhibition at 10 µM (5-HT1A): -11.6%
inhibition at 10 µM (M5): 13.9%
inhibition at 10 µM (5-HT5A): -6.32%
inhibition at 10 µM (D4): 15.2%
inhibition at 10 µM (M3): 7.36%
inhibition at 10 µM (α3β2): -18.8%
inhibition at 10 µM (α1D): 16.2%
inhibition at 10 µM (5-HT1B): 2.27%
inhibition at 10 µM (H3): 22.1%
inhibition at 10 µM (α1A): 9.04%
inhibition at 10 µM (D5): -22.3%
inhibition at 10 µM (M1): 0.45%
inhibition at 10 µM (α2B): 15%
inhibition at 10 µM (α2β2): 11.7%
inhibition at 10 µM (5-HT2C): 6.48%
inhibition at 10 µM (5-HT6): 1.16%
inhibition at 10 µM (DOR): -22.6%
inhibition at 10 µM (α2β4): 17.6%
inhibition at 10 µM (M2): 14.3%
inhibition at 10 µM (5-HT3): -1.8%
inhibition at 10 µM (H4): 18.9%
inhibition at 10 µM (D2): 23.2%
inhibition at 10 µM (DAT): -12.5%
inhibition at 10 µM (5-HT1D): 1.58%
inhibition at 10 µM (α4β2): -3.17%
inhibition at 10 µM (5-HT2A): 8%
inhibition at 10 µM (α2A): 34.1%
inhibition at 10 µM (β3): 25.5%
inhibition at 10 µM (M4): 7.63%
inhibition at 10 µM (H2): 15.8%
inhibition at 10 µM (α2C): 15.7%
inhibition at 10 µM (β1): -10.5%

CCCC(=O)O[C@H]1[C@H]2[C@H](CCN3CCC[C@@H]23)CC(C)(C)[C@H]1OC(=O)CCC [Compound 4, Ischnocybine C]
Primary binding assay Inhibition % (mean) (sigma-1 receptor (σ1R) [1]): 93 ± 7%
inhibition at 10 µM (α4β4): -16.5%
inhibition at 10 µM (SERT): 13.1%
inhibition at 10 µM (D3): 42.4%
inhibition at 10 µM (α3β4): -27.4%
inhibition at 10 µM (α1B): 13.1%
inhibition at 10 µM (β2): 3.17%
Ki (5-HT1E): > 10 µM
inhibition at 10 µM (5-HT1E): -26.6%
inhibition at 10 µM (NET): 12.6%
inhibition at 10 µM (KOR): 6.27%
inhibition at 10 µM (5-HT7A): 23.4%
inhibition at 10 µM (MOR): 0.93%
inhibition at 10 µM (sigma-1 receptor (σ1R) [2]): 93.4%
inhibition at 10 µM (PBR): -10.8%
inhibition at 10 µM (H1): 8.69%
Ki (D1): > 10 µM
inhibition at 10 µM (D1): 54.1%
inhibition at 10 µM (α4β2 (Rat Brain)): 4.62%
inhibition at 10 µM (5-HT2B): 12.7%
inhibition at 10 µM (5-HT1A): -23.6%
inhibition at 10 µM (M5): 7.8%
inhibition at 10 µM (5-HT5A): -3.71%
inhibition at 10 µM (D4): -5.52%
inhibition at 10 µM (M3): 8.65%
inhibition at 10 µM (α3β2): -3.93%
inhibition at 10 µM (α1D): 6.19%
inhibition at 10 µM (5-HT1B): 0.67%
inhibition at 10 µM (H3): 9.66%
inhibition at 10 µM (α1A): 9.07%
inhibition at 10 µM (D5): -2.17%
inhibition at 10 µM (M1): 11.1%
inhibition at 10 µM (α2B): 43.3%
inhibition at 10 µM (α2β2): -4.83%
inhibition at 10 µM (5-HT2C): 14.8%
inhibition at 10 µM (5-HT6): 12.1%
inhibition at 10 µM (DOR): -21.6%
inhibition at 10 µM (α2β4): 0.87%
inhibition at 10 µM (M2): 13.6%
inhibition at 10 µM (5-HT3): 0.7%
inhibition at 10 µM (H4): -7.33%
inhibition at 10 µM (D2): 10.8%
inhibition at 10 µM (DAT): -17.6%
inhibition at 10 µM (5-HT1D): 8.52%
inhibition at 10 µM (α4β2): -9.66%
inhibition at 10 µM (5-HT2A): 14.2%
inhibition at 10 µM (α2A): 47.2%
inhibition at 10 µM (β3): -2.63%
inhibition at 10 µM (M4): 2.81%
inhibition at 10 µM (H2): 21.5%
inhibition at 10 µM (α2C): 70.6%
inhibition at 10 µM (β1): 13.1%
